Data as given in PubChem BioAssay AID602196 (INSERM, 2012).

Test: 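Knock-downs that protect lung cancer cells from cisplatin or sensitise them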
System: human A549 lung cancer cells
Reagents: siRNA pair against human genes
Time to read-out: 48 h transfection before cisplatin; time from cisplatin to read-out not stated
Conditions: cisplatin at a dose killing half of control-siRNA cells; exact dose and duration not given
Detection: 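Shift in cisplatin death relative to control siRNA, from -50 (all cells die) to +50 (no cells die); siRNAs harmful on their own scored 0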
Scale: two-siRNA summed score (-2 to +2): higher = both siRNAs protect from cisplatin killing; -2 means both sensitise; mean protection from cisplatin (shift in death) and protection from cisplatin (shift in death), siRNA C and protection from cisplatin (shift in death), siRNA D: higher = protection from cisplatin killing
Call rule: 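Each siRNA scores 0 if harmful alone by LDH or WST-1, otherwise +1 if it reduces and -1 if it increases cisplatin killing; a gene is active when both siRNAs agree (sum +2 or -2)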
Meaning of the calls: active = both siRNAs shift cisplatin killing the same way; inactive = no consistent shift, or siRNA harmful alone
The whole screen tested about 23,000 reagents; below is a random part of them. 455 of all reagents (2%) were called active. 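Active includes both protection and sensitisation; some change values fall well beyond the stated -50 to +50 range.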 The record does not give: the amount of reagent.

no.	gene knocked down	two-siRNA summed score (-2 to +2)	mean protection from cisplatin (shift in death) (%)	protection from cisplatin (shift in death), siRNA C (%)	protection from cisplatin (shift in death), siRNA D (%)	outcome
1	NCKIPSD	-1	-6.8	4.7	-18.3	inactive
2	ZC2HC1A	0	5.5	-2.1	13.1	inactive
3	LOC441745	0	3.7	12.2	-4.9	inactive
4	MGC72083	1	2	-14.1	18.2	inactive
5	MCM8	0	7.4	1.2	13.7	inactive
6	TTC19	0	-3.4	2.6	-9.4	inactive
7	GAMT	-1	-4.8	19.7	-29.3	inactive
8	CERCAM	0	9.8	12.6	6.9	inactive
9	IDI2-AS1	0	4.3	5.3	3.3	inactive
10	LOC400800	0	1.4	-5.2	8.1	inactive
11	ASCL4	0	6.5	2.5	10.5	inactive
12	LOC387790	0	6.3	8.9	3.8	inactive
13	KRTAP9-4	0	9.3	22.8	-4.1	inactive
14	NID2	0	-30.7	-32.3	-29.1	inactive
15	LOC285550	0	1.2	-1.5	3.8	inactive
16	LOC400134	0	9.6	7.4	11.8	inactive
17	A1CF	0	6.3	3.2	9.4	inactive
18	WDR43	1	20	9.4	30.6	inactive
19	CDC42BPG	1	25.4	40.4	10.5	inactive
20	KRT18	0	9.7	13.7	5.6	inactive
21	BCAM	0	-18.7	-20.5	-16.8	inactive
22	HIPK1	0	-7.9	-3.5	-12.3	inactive
23	SLC44A5	2	19.2	16	22.4	active

Targets above whose target name begins with L or l (5):
gene knocked down	two-siRNA summed score (-2 to +2)	mean protection from cisplatin (shift in death) (%)	protection from cisplatin (shift in death), siRNA C (%)	protection from cisplatin (shift in death), siRNA D (%)	outcome
LOC441745	0	3.7	12.2	-4.9	inactive
LOC400800	0	1.4	-5.2	8.1	inactive
LOC387790	0	6.3	8.9	3.8	inactive
LOC285550	0	1.2	-1.5	3.8	inactive
LOC400134	0	9.6	7.4	11.8	inactive
